Test results: publication PMC3591265

What was measured:
Experiment in all cases: two-hybrid; E. coli two-hybrid (BacterioMatch II, Agilent); bait pBT and target pTRG co-transformed; selective medium with 3-AT, dual selective medium with 3-AT and streptomycin
[1] = target: T1, OsCLF (E. coli two-hybrid fusion) (Oryza sativa) (UniProt Q5VN06)
T1 sequence: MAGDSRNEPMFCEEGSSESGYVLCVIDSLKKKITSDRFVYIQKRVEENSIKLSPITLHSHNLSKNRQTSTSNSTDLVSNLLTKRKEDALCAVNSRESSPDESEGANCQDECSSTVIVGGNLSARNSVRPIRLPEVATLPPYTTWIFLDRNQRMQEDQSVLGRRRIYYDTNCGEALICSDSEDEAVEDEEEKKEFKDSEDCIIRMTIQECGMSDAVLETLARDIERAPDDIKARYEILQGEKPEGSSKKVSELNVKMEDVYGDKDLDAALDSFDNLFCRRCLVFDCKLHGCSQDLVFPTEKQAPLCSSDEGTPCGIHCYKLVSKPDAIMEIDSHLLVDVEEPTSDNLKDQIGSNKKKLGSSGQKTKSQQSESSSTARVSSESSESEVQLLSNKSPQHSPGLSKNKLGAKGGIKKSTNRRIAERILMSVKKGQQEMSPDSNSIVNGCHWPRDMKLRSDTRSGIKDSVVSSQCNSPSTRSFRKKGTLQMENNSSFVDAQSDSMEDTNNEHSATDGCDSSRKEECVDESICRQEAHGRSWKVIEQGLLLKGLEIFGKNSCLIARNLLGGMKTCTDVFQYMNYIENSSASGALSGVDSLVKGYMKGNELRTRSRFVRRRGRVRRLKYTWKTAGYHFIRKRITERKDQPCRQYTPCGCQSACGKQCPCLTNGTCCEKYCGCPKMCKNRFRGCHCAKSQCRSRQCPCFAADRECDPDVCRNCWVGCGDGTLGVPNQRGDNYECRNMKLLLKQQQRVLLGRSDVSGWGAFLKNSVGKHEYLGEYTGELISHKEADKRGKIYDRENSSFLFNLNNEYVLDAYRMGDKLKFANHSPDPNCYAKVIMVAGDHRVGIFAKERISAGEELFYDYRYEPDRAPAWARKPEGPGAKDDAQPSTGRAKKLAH

[2] = target: T2, OsSET1 (E. coli two-hybrid fusion) (Oryza sativa) (UniProt Q10MI4)
T2 sequence: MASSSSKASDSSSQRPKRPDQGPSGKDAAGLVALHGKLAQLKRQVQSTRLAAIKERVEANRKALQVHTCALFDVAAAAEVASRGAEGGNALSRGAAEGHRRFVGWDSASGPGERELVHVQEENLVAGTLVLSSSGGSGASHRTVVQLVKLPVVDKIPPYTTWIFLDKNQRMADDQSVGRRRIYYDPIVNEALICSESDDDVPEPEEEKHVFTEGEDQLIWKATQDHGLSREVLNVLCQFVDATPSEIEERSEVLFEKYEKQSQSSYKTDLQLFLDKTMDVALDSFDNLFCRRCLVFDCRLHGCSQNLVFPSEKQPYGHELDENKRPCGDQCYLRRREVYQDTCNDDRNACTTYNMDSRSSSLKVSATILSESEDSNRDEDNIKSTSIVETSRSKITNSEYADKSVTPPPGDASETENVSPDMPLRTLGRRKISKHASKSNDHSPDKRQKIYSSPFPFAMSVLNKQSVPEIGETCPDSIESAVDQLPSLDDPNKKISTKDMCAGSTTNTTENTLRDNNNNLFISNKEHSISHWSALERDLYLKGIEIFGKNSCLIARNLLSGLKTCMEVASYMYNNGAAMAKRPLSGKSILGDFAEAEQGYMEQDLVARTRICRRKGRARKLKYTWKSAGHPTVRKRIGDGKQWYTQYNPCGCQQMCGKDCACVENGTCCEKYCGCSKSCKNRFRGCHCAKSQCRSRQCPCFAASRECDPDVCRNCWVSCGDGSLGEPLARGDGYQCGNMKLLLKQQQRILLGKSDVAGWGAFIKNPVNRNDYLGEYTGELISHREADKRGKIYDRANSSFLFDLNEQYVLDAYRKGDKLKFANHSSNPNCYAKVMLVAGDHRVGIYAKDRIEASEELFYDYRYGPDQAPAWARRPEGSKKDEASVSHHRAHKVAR

[3] = target: OsEMF2b (E. coli two-hybrid fusion) (Oryza sativa)

- binding [1]: no binding
- binding [2]: no binding
Molecule: OsEMF2b (E. coli two-hybrid fusion) (Oryza sativa)

- binding [3]: no binding
B1: OsFIE2 (E. coli two-hybrid fusion) (protein, UniProt Q6ZJX0 1-376)
chain: MAKLGPGQGLGCEAAVGLLAPSRKREYKACNKLTEGKRPLYAIGFNFLDFHYYEVFATVGGNRVTTYSCLKDGNFAILQAYIDEDKDESFYTLSWACDLDGTPLLVAAGSNGIIRVINCATEKLLKTFVGHGDSINEIRTQALKPSLIISASKDESVRLWNVHTGICILIFAGAGGHRNEVLSVDFHPSDIYRIASCGMDNTVKIWSMKEFWPYVEQSFTWTDLPSKFPTKYVQFPVLVAVVHSNYVDCTRWLGDFILSKSVDNEIVLWEPKTKEQSPGEGSIDILQKYPVPECDIWFIKFSCDFHFNQLAIGNREGKVFVWEVQSSPPVLTARLTNPQCKSAIRQTAVSFDGSTILACSEDGSIWRWDEVDHPKA

These are yes or no findings as the source states them, for the method shown. Where a sequence is shown, tags or fusion partners need not be part of it. One block for each molecule: values may come before it.
